Measurements reported in PubChem BioAssay AID1159508 (Drosophila RNAi Screening Center, 2015).
Purpose: 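Viability reference data for a dsRNA library against RNA-binding protein genes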. Cells: Drosophila S2R+ cells. Reagents: long dsRNA against Drosophila genes. Timing: 5 days. Read-out: 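Total ATP per well measured by luciferase luminescence after 5 days, expressed as z-scores for each replicate and as their average across up to three replicates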. Reading the numbers: mean ATP z-score: higher = more total ATP luminescence. Rule for the call: In these data the active calls have mean ATP z-score at about -2 or lower, or at about 2 or higher. Calls: active = strong ATP change (up or down); inactive = no strong ATP change.
Here is a random part of 812 deposited reagents. 18 of all reagents (2.2%) were called active. 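Calls include both increased and decreased ATP; roughly one in four reagents has no third replicate value.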 Unmarked entries are inactive. Not all columns of the deposit are shown. The record does not give: the amount of reagent.

Which result is listed for CG13096 [DRSC02198]?
mean ATP z-score: 0.716

What is on record for CG13096 [DRSC33862]?
mean ATP z-score: 0.412

What is on record for NELF-B [DRSC17734]?
mean ATP z-score: 0.034

What is on record for NELF-B [DRSC34513]?
mean ATP z-score: 0.288

What did the screen give for hyd (hyperplastic discs) [DRSC34921]?
mean ATP z-score: -0.353

Which result is listed for hyd (hyperplastic discs) [DRSC38400]?
mean ATP z-score: -1.01

Entries above whose gene name begins with N or n:
NELF-B [DRSC17734]: mean ATP z-score = 0.034
NELF-B [DRSC34513]: mean ATP z-score = 0.288

Additional reagents:
With mxt (mextli) [DRSC00551], how do the results read?
mean ATP z-score: 1.11

What did the screen give for mxt (mextli) [DRSC25001]?
mean ATP z-score: -0.223

How did the screen score CG14230 [DRSC19586]?
mean ATP z-score: 0.239

How did the screen score CG14230 [DRSC33986]?
mean ATP z-score: 0.143

For Rbp4 (RNA-binding protein 4) [DRSC16818], how do the results read?
mean ATP z-score: -0.155

How did the screen score Rbp4 (RNA-binding protein 4) [DRSC27818]?
mean ATP z-score: -0.173

What did the screen give for Nab2 (Nuclear polyadenosine RNA-binding 2) [DRSC27135]?
mean ATP z-score: 0.0186

For Nab2 (Nuclear polyadenosine RNA-binding 2) [DRSC35392], what does the deposit list?
mean ATP z-score: -0.148
